Data on one molecule can be found in PMC11932694.

Amino acid sequences for entries named in this document (tags omitted).
UniProt Q86VP6: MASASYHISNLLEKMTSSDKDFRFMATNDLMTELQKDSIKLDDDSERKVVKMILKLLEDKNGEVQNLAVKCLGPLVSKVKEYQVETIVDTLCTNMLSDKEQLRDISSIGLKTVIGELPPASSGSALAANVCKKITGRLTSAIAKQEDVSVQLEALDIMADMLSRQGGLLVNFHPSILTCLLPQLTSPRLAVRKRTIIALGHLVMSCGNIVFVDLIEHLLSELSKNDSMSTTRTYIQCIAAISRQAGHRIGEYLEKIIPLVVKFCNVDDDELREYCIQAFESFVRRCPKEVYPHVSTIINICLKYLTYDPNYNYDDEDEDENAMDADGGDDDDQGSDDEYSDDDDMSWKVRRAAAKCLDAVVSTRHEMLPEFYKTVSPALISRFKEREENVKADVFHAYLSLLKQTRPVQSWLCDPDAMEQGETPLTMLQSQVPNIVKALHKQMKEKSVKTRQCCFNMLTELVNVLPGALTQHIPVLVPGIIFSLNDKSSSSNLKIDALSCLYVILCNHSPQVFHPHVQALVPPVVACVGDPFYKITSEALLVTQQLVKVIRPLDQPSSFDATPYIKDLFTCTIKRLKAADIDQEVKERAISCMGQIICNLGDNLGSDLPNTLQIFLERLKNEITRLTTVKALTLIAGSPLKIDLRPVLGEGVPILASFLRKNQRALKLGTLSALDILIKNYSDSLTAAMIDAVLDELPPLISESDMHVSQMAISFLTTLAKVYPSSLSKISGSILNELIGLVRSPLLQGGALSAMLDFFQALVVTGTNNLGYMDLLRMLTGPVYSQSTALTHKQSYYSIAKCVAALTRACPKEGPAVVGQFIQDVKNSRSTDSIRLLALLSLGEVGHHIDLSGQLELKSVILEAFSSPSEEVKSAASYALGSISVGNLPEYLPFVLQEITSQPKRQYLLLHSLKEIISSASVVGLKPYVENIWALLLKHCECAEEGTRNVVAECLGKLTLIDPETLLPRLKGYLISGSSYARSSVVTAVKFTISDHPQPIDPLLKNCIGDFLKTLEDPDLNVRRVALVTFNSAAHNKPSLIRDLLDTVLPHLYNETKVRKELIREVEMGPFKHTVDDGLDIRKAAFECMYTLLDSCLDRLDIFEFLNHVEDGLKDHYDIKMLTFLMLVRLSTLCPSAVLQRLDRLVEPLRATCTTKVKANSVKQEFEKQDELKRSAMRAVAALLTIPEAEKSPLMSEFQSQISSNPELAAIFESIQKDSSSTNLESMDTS
UniProt Q14694: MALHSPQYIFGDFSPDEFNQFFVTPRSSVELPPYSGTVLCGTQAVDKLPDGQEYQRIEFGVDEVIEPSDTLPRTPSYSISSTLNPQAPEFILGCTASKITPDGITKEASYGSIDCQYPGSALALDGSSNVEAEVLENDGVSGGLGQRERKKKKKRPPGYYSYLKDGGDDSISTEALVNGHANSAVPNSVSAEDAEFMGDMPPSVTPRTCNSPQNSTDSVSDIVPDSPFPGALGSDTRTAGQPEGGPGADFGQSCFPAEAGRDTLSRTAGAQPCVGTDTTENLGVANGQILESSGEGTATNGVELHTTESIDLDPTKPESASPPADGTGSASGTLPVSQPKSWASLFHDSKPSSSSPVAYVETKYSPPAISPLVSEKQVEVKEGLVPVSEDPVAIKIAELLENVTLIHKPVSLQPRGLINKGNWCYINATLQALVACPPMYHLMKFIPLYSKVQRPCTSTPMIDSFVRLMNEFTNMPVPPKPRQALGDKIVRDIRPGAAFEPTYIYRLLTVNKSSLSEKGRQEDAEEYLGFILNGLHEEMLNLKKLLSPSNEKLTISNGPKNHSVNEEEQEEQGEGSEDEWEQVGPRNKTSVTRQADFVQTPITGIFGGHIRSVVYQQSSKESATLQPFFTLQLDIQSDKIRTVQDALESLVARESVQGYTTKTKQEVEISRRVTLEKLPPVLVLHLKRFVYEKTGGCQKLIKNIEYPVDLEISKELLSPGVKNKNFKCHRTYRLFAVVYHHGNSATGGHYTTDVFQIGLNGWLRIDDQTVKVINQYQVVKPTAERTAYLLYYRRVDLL

What all share (experiment): co-IP; HEK293T cells co-transfected with a Flag-tagged protein and GFP-tagged ORMDL3 (whole or truncated); lysates immunoprecipitated with anti-Flag antibody and protein A/G beads, blots with anti-GFP and anti-Flag; in Figure 5B with or without poly(I:C) co-transfection
The target in one test is CAND1 (UniProt Q86VP6).
The next test concerns the target T1, Flag-IKBKE (UniProt Q14164).
T1 sequence: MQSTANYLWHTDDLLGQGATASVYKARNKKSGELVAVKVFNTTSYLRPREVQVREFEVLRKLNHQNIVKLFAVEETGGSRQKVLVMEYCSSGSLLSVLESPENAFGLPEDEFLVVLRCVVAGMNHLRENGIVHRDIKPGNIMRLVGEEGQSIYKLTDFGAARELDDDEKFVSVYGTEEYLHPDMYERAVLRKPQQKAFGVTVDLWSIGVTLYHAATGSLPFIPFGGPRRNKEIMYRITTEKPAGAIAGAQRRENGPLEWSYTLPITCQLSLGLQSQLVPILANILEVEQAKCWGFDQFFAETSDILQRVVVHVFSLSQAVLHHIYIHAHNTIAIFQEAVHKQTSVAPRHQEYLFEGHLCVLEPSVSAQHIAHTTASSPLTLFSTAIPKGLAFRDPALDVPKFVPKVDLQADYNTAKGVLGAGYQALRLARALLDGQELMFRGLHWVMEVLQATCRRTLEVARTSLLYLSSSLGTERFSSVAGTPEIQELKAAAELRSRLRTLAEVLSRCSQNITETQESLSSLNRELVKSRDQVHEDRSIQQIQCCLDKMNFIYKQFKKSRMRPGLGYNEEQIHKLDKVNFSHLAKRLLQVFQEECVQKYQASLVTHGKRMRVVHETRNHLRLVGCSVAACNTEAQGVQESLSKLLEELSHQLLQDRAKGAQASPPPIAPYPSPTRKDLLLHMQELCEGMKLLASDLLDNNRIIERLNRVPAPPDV

Another test addresses T2, Flag-TBK1 (UniProt Q9UHD2).
T2 sequence: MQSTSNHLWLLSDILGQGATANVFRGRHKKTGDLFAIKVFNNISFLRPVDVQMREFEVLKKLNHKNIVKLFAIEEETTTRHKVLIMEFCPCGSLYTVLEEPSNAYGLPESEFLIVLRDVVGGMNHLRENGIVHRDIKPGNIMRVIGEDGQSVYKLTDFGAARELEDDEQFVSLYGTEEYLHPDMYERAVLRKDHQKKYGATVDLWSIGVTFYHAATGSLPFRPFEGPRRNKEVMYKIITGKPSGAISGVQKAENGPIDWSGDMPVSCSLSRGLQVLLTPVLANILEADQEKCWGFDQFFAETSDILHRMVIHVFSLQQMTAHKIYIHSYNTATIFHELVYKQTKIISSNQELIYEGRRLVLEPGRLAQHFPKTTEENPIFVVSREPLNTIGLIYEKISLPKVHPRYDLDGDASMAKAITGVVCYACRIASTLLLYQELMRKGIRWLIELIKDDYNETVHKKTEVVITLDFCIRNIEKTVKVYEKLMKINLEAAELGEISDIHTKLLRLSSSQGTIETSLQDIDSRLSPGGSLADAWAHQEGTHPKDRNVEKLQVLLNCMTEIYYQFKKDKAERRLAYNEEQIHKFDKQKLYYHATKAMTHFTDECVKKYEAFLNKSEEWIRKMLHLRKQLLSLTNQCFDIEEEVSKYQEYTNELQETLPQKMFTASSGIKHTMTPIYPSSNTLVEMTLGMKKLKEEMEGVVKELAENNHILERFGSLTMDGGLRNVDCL

For a further test, the target named is Flag-USP10 (UniProt Q14694).

Results are given in words; binding and its absence hold for the method and conditions named. In cells and extracts the contact can be indirect. Some binding calls cover weakened binding; strength is not graded here. Tags and fused reporters may be left off the sequences shown.

B1: ORMDL3-GFP (protein, UniProt Q8N138 1-153)
chain: MNVGTAHSEVNPNTRVMNSRGIWLSYVLAIGLLHIVLLSIPFVSVPVVWTLTNLIHNMGMYIFLHTVKGTPFETPDQGKARLLTHWEQMDYGVQFTASRKFLTITPIVLYFLTSFYTKYDQIHFVLNTVSLMSVLIPKLPQLHGVRIFGINKY
For B1, the binding result with CAND1 was “no binding”; with Flag-IKBKE, “no binding”; in the test with Flag-TBK1 it was “no binding”; in the test with Flag-USP10, “binds”.
